Measurements reported in PubChem BioAssay AID1671195 (Yale University, 2021)

Purpose: 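Knockdowns that increase or decrease uptake of fluorescent LDL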 (primary screen)
Cells: human Huh7 hepatoma cells
Reagent: siRNA pool against human genes, 18 nM
Duration: about 2 to 2.5 days of knockdown, then 8 h LDL uptake
Challenge: DiI-labelled LDL at 30 µg/ml for 8 h, in lipoprotein-deficient serum medium
Read-out: 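Fluorescent LDL signal imaged in cells, scaled to the plate median, robust z-score for each replicate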
Direction: robust z-score: higher = more LDL uptake after knockdown
Hit rule: 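a gene counts as active if at least two replicate z-scores exceed ±2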
The whole screen tested about 22,000 reagents; this is a part drawn at random. About 1,510 of them (6.9%) count as active. 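Active includes knockdowns raising or lowering LDL uptake; positive z-scores mean more uptake, negative mean less.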 Unmarked entries are inactive. The numbers tell different reagents against one gene apart.

With knock-down of SHISA9 (GeneID 729993) the results were robust z-score, replicate 1 = 1.42; robust z-score, replicate 2 = 1.46; robust z-score, replicate 3 = 2.04.
EIF4ENIF1 (GeneID 56478) showed robust z-score, replicate 1 = -0.818; robust z-score, replicate 2 = -0.364; robust z-score, replicate 3 = -1.68.
ITPR3 (GeneID 3710) gave robust z-score, replicate 1 = -0.0476; robust z-score, replicate 2 = -0.612; robust z-score, replicate 3 = -0.608.
After knock-down of PHAF1 (GeneID 80262) the results were robust z-score, replicate 1 = 0.501; robust z-score, replicate 2 = 0.55; robust z-score, replicate 3 = -0.0153.
Silencing of ATP11A (GeneID 23250) came out at: robust z-score, replicate 1 = 0.563; robust z-score, replicate 2 = 0.486; robust z-score, replicate 3 = 0.381.
Against PIPOX (GeneID 51268), the entry reads robust z-score, replicate 1 = 0.336; robust z-score, replicate 2 = 1.43; robust z-score, replicate 3 = 0.194.
Knock-down of TNNC1 (GeneID 7134) came out at: robust z-score, replicate 1 = -0.239; robust z-score, replicate 2 = 0.9; robust z-score, replicate 3 = -0.263.
Depletion of DCAF8L2 (GeneID 347442) #1 gave: robust z-score, replicate 1 = -0.311; robust z-score, replicate 2 = -0.384; robust z-score, replicate 3 = -0.282.
For DCAF8L2 (GeneID 347442) #2 the deposit lists robust z-score, replicate 1 = -0.799; robust z-score, replicate 2 = -0.911; robust z-score, replicate 3 = -0.729.
Against ZNF84 (GeneID 7637), the values are robust z-score, replicate 1 = 5.03 (active); robust z-score, replicate 2 = 4.87; robust z-score, replicate 3 = 2.61.
With knock-down of RNASE8 (GeneID 122665), the screen gave robust z-score, replicate 1 = -0.878; robust z-score, replicate 2 = -1.15; robust z-score, replicate 3 = -0.875.
For OR5K2 (GeneID 402135), the entry reads robust z-score, replicate 1 = 0.708; robust z-score, replicate 2 = 0.27; robust z-score, replicate 3 = 1.19.
Depletion of RASSF8 (GeneID 11228) came out at: robust z-score, replicate 1 = -0.605; robust z-score, replicate 2 = -1.35; robust z-score, replicate 3 = 0.561.
Knock-down of TMCC1 (GeneID 23023) resulted in: robust z-score, replicate 1 = -0.226; robust z-score, replicate 2 = 1.79; robust z-score, replicate 3 = 0.041.
Knock-down of LOC400651 (retired record) (GeneID 400651) gave: robust z-score, replicate 1 = -1.15; robust z-score, replicate 2 = -1.31; robust z-score, replicate 3 = -1.31.
With knock-down of SHF (GeneID 90525), the record shows robust z-score, replicate 1 = 0.642; robust z-score, replicate 2 = 0.486; robust z-score, replicate 3 = -0.131.
With knock-down of PPP2R5A (GeneID 5525) the results were robust z-score, replicate 1 = -0.761; robust z-score, replicate 2 = -0.884; robust z-score, replicate 3 = -1.32.
PLXNA4 (GeneID 91584) #1 gave robust z-score, replicate 1 = 2.05; robust z-score, replicate 2 = 1.59; robust z-score, replicate 3 = 1.65.
Against PLXNA4 (GeneID 91584) #2, the values are robust z-score, replicate 1 = -1.69; robust z-score, replicate 2 = -1.52; robust z-score, replicate 3 = -1.41.
USF3 (GeneID 205717) scored robust z-score, replicate 1 = 0.247; robust z-score, replicate 2 = 0.241; robust z-score, replicate 3 = 0.237.
Depletion of TFIP11 (GeneID 24144) resulted in: robust z-score, replicate 1 = 1.4; robust z-score, replicate 2 = 1.24; robust z-score, replicate 3 = 1.46.
HMGCS1 (GeneID 3157) gave robust z-score, replicate 1 = 0.781; robust z-score, replicate 2 = 3.71; robust z-score, replicate 3 = 1.26.
OR10H2 (GeneID 26538) scored robust z-score, replicate 1 = 1.68; robust z-score, replicate 2 = -0.25; robust z-score, replicate 3 = 1.66.
Against UPF1 (GeneID 5976), the values are robust z-score, replicate 1 = 1.03; robust z-score, replicate 2 = 1.24; robust z-score, replicate 3 = 1.68.
